PubChem BioAssay AID686943 | Drosophila RNAi Screening Center – 2013
Purpose: 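Search across the genome for regulators of signalling from receptor tyrosine kinase to ERK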 (primary screen). Cell system: Drosophila S2R+ haemocyte-like cells expressing YFP-tagged ERK (Rolled). Knock-down reagent: long dsRNA against Drosophila genes. Conditions: insulin stimulation versus unstimulated cells; dose and duration not given. Detection: 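Antibody staining for doubly phosphorylated ERK divided by ERK-YFP signal, as plate z-scores, in insulin-treated and untreated cells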. Direction: replicate 1, z-score of dpERK with insulin: higher = more active ERK per ERK-YFP after insulin.
In all, the deposit lists about 23,000 reagents; below is an unselected part of those that have a named target and a result. 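Extra replicates exist only for a retested subset of genes; insulin dose and duration not given; both raised and lowered dpERK matter.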 Not all columns of the deposit are shown. Reagent sequences are not shown. The record does not give: the amount of reagent, the time to read-out.

replicate 1, z-score of dpERK with insulin, by target gene and reagent
CNBP: DRSC04116 0.23; DRSC04419 0.3; DRSC21317 -0.21
udd: DRSC06720 0.41
beta4GalT7: DRSC14385 -0.77
Pgm2a: DRSC07068 -0.33
elg1: DRSC10229 0.25
conv: DRSC07213 0.99
Nep4: DRSC15539 0.67
CG7366: DRSC10825 0.65
asf1: DRSC11324 -2.97
CG2187: DRSC15425 0.56
b: DRSC03487 0.48
BaraB: DRSC06420 -0.2
ctp: DRSC18758 -3.04
Mipp1: DRSC11223 1.85
CG3104: DRSC00567 1.3
CR33315: DRSC22947 0.28
CG3927: DRSC04433 0.55; DRSC22813 -0.74
CG42674: DRSC10066 1.37; DRSC10067 0.4; DRSC10811 0.95
SLC5A11: DRSC03088 0.22
CG32106: DRSC09219 0.31
CG4282: DRSC06865 0.54
sano: DRSC06165 1.33
wash: DRSC06302 0.11
Gld2: DRSC15863 -1.89
CG31141: DRSC13646 0.33
Tango8: DRSC06474 -1.94
Osi7: DRSC12176 -0.18
Prp18: DRSC16802 2.54

Not a retest: an excerpt of the list.
replicate 1, z-score of dpERK with insulin, by target gene and reagent
Mipp1: DRSC11223 1.85
CG3104: DRSC00567 1.3
CR33315: DRSC22947 0.28
CG3927: DRSC04433 0.55; DRSC22813 -0.74
CG42674: DRSC10066 1.37; DRSC10067 0.4; DRSC10811 0.95
SLC5A11: DRSC03088 0.22

Additional reagents follow:
replicate 1, z-score of dpERK with insulin, by target gene and reagent
CG6295: DRSC16012 0.55
Obp47a: DRSC06255 -1.06
CG31099: DRSC14252 -0.27
RpL22: DRSC18707 0.77; DRSC22819 0.4
La: DRSC03358 0.24
Jig: DRSC14974 0.4
sbm: DRSC20185 0.34
CG14960: DRSC08419 0.32
CG46298: DRSC06222 0.35
CR33294: DRSC22950 0.38
CG7168: DRSC16208 0.32
l(2)05287: DRSC02151 -1.18; DRSC02152 -0.79
CG32856: DRSC13124 0.23
CG14401: DRSC02385 0.78; DRSC21710 0.61
Inx7: DRSC18784 0.61
Obp56b: DRSC06551 0.65
CG6664: DRSC10690 0.22
CRAT: DRSC12523 0.17
CG3735: DRSC04411 -0.56
tsg: DRSC20380 0.46
Slimp: DRSC13656 -0.48
